# Measurements: article doi:10.1101/2022.10.05.510978
# Amino acid sequences for entries named in this document (tags omitted).
# UniProt Q9BV86: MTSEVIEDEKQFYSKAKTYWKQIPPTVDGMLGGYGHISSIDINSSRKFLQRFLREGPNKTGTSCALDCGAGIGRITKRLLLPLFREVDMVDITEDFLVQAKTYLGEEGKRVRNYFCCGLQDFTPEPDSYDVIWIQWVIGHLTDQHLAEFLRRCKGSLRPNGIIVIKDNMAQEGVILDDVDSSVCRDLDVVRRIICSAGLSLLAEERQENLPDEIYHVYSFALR
# UniProt Q5VVY1: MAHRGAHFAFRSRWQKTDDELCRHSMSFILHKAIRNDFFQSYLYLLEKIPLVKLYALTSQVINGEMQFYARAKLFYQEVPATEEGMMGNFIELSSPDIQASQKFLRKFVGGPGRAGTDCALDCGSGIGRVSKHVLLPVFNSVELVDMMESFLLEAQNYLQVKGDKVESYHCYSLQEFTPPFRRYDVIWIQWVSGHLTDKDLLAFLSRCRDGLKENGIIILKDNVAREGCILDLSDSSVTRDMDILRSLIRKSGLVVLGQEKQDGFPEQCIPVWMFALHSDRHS
# Like-named read-outs stand apart in the source and are kept apart here. Results are given in words; binding and its absence hold for the method and conditions named. Binding seen in cells or lysates may run through a third protein. Some results given as binding are weak or reduced against the parent protein; the word gives no strength. For part of these data: Where a sequence is shown, tags or fusion partners need not be part of it.
# B1: METTL13 N-terminal fragment (residues M1-Y344)-GFP (domain or fragment, UniProt Q8N6R0 1-344)
# chain: MNLLPKSSREFGSVDYWEKFFQQRGKKAFEWYGTYLELCGVLHKYIKPREKVLVIGCGNSELSEQLYDVGYRDIVNIDISEVVIKQMKECNATRRPQMSFLKMDMTQMEFPDASFQVVLDKGTLDAVLTDEEEKTLQQVDRMLAEVGRVLQVGGRYLCISLAQAHILKKAVGHFSREGWMVRVHQVANSQDQVLEAEPQFSLPVFAFIMTKFRPVPGSALQIFELCAQEQRKPVRLESAERLAEAVQERQQYAWLCSQLRRKARLGSVSLDLCDGDTGEPRYTLHVVDSPTVKPSRDNHFAIFIIPQGRETEWLFGMDEGRKQLAASAGFRRLITVALHRGQQY
# B2: METTL13-GFP (enzyme, UniProt Q8N6R0 1-699)
# chain: MNLLPKSSREFGSVDYWEKFFQQRGKKAFEWYGTYLELCGVLHKYIKPREKVLVIGCGNSELSEQLYDVGYRDIVNIDISEVVIKQMKECNATRRPQMSFLKMDMTQMEFPDASFQVVLDKGTLDAVLTDEEEKTLQQVDRMLAEVGRVLQVGGRYLCISLAQAHILKKAVGHFSREGWMVRVHQVANSQDQVLEAEPQFSLPVFAFIMTKFRPVPGSALQIFELCAQEQRKPVRLESAERLAEAVQERQQYAWLCSQLRRKARLGSVSLDLCDGDTGEPRYTLHVVDSPTVKPSRDNHFAIFIIPQGRETEWLFGMDEGRKQLAASAGFRRLITVALHRGQQYESMDHIQAELSARVMELAPAGMPTQQQVPFLSVGGDIGVRTVQHQDCSPLSGDYVIEDVQGDDKRYFRRLIFLSNRNVVQSEARLLKDVSHKAQKKRKKDRKKQRPADAEDLPAAPGQSIDKSYLCCEHHKAMIAGLALLRNPELLLEIPLALLVVGLGGGSLPLFVHDHFPKSCIDAVEIDPSMLEVATQWFGFSQSDRMKVHIADGLDYIASLAGGGEARPCYDVIMFDVDSKDPTLGMSCPPPAFVEQSFLQKVKSILTPEGVFILNLVCRDLGLKDSVLAGLKAVFPLLYVRRIEGEVNEILFCQLHPEQKLATPELLETAQALERTLRKPGRGWDDTYVLSDMLKTVKIV
# B3: METTL13 C-terminal fragment (residues E345-V699)-GFP (domain or fragment, UniProt Q8N6R0 345-699)
# chain: ESMDHIQAELSARVMELAPAGMPTQQQVPFLSVGGDIGVRTVQHQDCSPLSGDYVIEDVQGDDKRYFRRLIFLSNRNVVQSEARLLKDVSHKAQKKRKKDRKKQRPADAEDLPAAPGQSIDKSYLCCEHHKAMIAGLALLRNPELLLEIPLALLVVGLGGGSLPLFVHDHFPKSCIDAVEIDPSMLEVATQWFGFSQSDRMKVHIADGLDYIASLAGGGEARPCYDVIMFDVDSKDPTLGMSCPPPAFVEQSFLQKVKSILTPEGVFILNLVCRDLGLKDSVLAGLKAVFPLLYVRRIEGEVNEILFCQLHPEQKLATPELLETAQALERTLRKPGRGWDDTYVLSDMLKTVKIV
# Experiments:
# Assay in all cases: co-IP
# METTL11A-FLAG (human) [1] = target: METTL11A-FLAG (human) (UniProt Q9BV86)
# METTL11A-FLAG (human) [2] = target: METTL11A-FLAG (human) (UniProt Q9BV86); remark: listed apart in the source
# METTL11B-FLAG (human) [3] = target: METTL11B-FLAG (human) (UniProt Q5VVY1)
# METTL11B-FLAG (human) [4] = target: METTL11B-FLAG (human) (UniProt Q5VVY1); remark: listed apart in the source
Molecule,binding (METTL11A-FLAG (human) [1]),binding (METTL11A-FLAG (human) [2]),binding (METTL11B-FLAG (human) [3]),binding (METTL11B-FLAG (human) [4])
METTL11B-GFP (from UniProt Q5VVY1 1-283) (enzyme),binds,–,–,–
B1,–,binds,–,–
B2,–,binds,binds,binds
B3,–,no binding,–,–
